Results from PubChem BioAssay AID1347423 (Functional Genomics Laboratory (NCATS/FGL), 2020).
About 210 (0.4%) of roughly 52,000 sequences were called active.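 How the source made its calls: active means gene whose silencing raises cell survival under the drug, median off-target-corrected z-score across its silencing RNAs 2 or more; inactive means the rest.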 This is one part of the list.

Assay: Resistance to Poly (ADP-Ribose) Polymerase inhibitor: Gene Identification via Genome-wide siRNA Screen
Conditions: mouse BRCA2 R2336H ES cells, olaparib, CellTiter-Glo viability; hits give high values
Method in brief: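 Genome-wide siRNA screen (3 siRNAs/gene, 20 nM) in mouse ES cells carrying hypomorphic BRCA2 R2336H; olaparib 500 nM added 48 h post-transfection, CellTiter-Glo viability 72 h later. Normalized to plate-median negative control; MAD z-scores, gene median, seed-adjusted.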

Sequence | z-score
GCAGUUCAUGUCCUGAAUATT against Olfr308 | inactive: -0.0596
GGUGUAAUGUCUUUGCUAATT against Spag6 | inactive: 0.558
GGUACCUUAAACUCAUGAATT against Ifnb1 | inactive: 1.41
GGGUUUCAACCGUCACCUGTT against Pygl | inactive: -0.885
GCGUGAACCUCCUUCUUGATT against Ramp3 | inactive: -0.741
GGACUUGAAAGACCUUGGATT against Map2k4 | inactive: -0.358
GAUAUUCCUGCUCACAGUGTT against Olfr1265 | inactive: 1.19
GGAAUGUCAGUCAACACCGTT against Tcfap2b | inactive: -0.46
GGGAGUAUAAGAGAAACCATT against Chgb | inactive: -0.988
CGGCAGCAGAAUAAAUAUGTT against Il12b | inactive: -0.151
CCGUGAAUAAGGUCAUCUUTT against Tesp1 | inactive: 0.672
CCAUUUACCUCACUUGUUUTT against Asb8 | inactive: 0.749
GGAAAGAUUGUACCAGUUGTT against 0610011D08Rik | inactive: -1.18
GGAAGAAAGGUCUAGAAGCTT against Tor2a | inactive: 0.725
GGCAAAGAUUCCAAAAGAGTT against 1110063F24Rik | inactive: 1.2
GGUUGGCAUCAACUACCAATT against Tuba4 | inactive: 0.304
GGUCUUCUACUCCUUCUCATT against Slc6a19 | inactive: -1.35
GGAACAAAGGAUGAUAAUUTT against 2610016F04Rik | inactive: -0.861
GGAACACAAAAGCAAAGAUTT against 1110021E09Rik | inactive: -1.49
GCUAGGAGAACCUACAUACTT against Adcy4 | inactive: -0.848
GGUACAAGACUGUCAUGUGTT against Mrpl3 | inactive: 0.789
GCCCAGCUCAAAUCUCCAUTT against 9230102D03Rik | inactive: -0.18
GGAUGUAUCUGAACAAUACTT against Gbl | inactive: 0.599

Sequence | z-score
CCUGCUUAUUUAUGUACGATT against Tob2 | inactive: -0.0512
GCCUUGACUGACAGACCCATT against Zfp114 | inactive: -0.642
GGGUUUUAUCUGUAGUACATT against 5830417I10Rik | inactive: 0.313
GGCAAAAAGGAAUUUCGGCTT against Padi2 | inactive: 0.909
GGGAACUGUACUGUAAUUUTT against Olfr615 | inactive: -1.19
CCGAAGUGCCAUGCCAUUUTT against Pdlim1 | inactive: -1.7
CCAGUAUGGAAGGUACUCATT against Scfd1 | inactive: -0.348
GGGAUAGCACAAGUGAGUCTT against Slc13a3 | inactive: -0.0761
GGGCAACUAUCCCGUUACUTT against Vps11 | inactive: 0.368
GCACAUAUGUUUGUUAAGCTT against D930025H04 | inactive: 0.744
GGACCUGUUUGAAGAAAAGTT against Gnai2 | inactive: -0.66
GGAUAAACUGUAUGGCUUCTT against Mmp9 | inactive: 1.51
GGACGUAGCUUGGAAAGAUTT against Flcn | inactive: -1.57
CGGAGCCUAUAACAUAUUUTT against Nid1 | inactive: 1.14
CCUAGCUAAUAAAACAUGUTT against Ltb4dh | inactive: 0.0062
GCACUUUUCAGUGAUAACATT against 2410018M08Rik | inactive: -0.631
GGGAAAAAUAAACUAAGUGTT against Rwdd1 | inactive: -1.93
GGUGAGCGAGAUAAGAAGCTT against Ube2s | inactive: 0.4
GUGGUCGGAAACACAAAGATT against Snrp1c | inactive: -3.13
GGUCAGCAUCACCUACGAUTT against Prss8 | inactive: -0.576
GGUAGUGGAGCUGAAUGUUTT against Kctd8 | inactive: -1.94
GGGUUACCCAGCAUUCUUUTT against Pex26 | inactive: -0.0448
CGUGGAAGACAUACAACCCTT against 5930418K15Rik | inactive: 1.22

Sequence | z-score
GGAUGGUACAGGUCUGGUGTT against Fgfr3 | inactive: 1.37
CCUAUAUCAACAUUAGAGATT against 9330174J19Rik | inactive: 0.114
GGCCACAGAUCUUCUGGUGTT against Calml4 | inactive: 0.529
GGAAAUGAACAGAAAUCACTT against Wdr4 | inactive: 0.858
GGAUGACGAUUAUAGAGAATT against Cap2 | inactive: -0.575
GCAUGAGUUAUCAUAAUCATT against Itgb2 | inactive: 0.203
GGAGCUUUAUUUUAUACCUTT against Ppil2 | inactive: 1.23
GGAAGAAGUCUGAUACAUCTT against E130306M17Rik | inactive: 0.0313
GGUGAGAUGGUUCAACAUGTT against Olfr77 | inactive: -0.497
GGAUAUUACUCUGUUGAAATT against Ppp2ca | inactive: 0.929
CCUCUUAUACCUUUAACUCTT against Skd3 | inactive: 1.15
GGAGUACCUGGAGUUCUUCTT against Zbtb7 | inactive: 0.679
GGAGUUUGAGAUCAUCUUCTT against Nxn | inactive: 0.479
GGUCUGCAUUUGCUUUCCUTT against Olr1 | inactive: -1.91
CCUCUGUGAUUUCAUUCUUTT against Hhip | inactive: 0.539
GGUUCAAGGUGAAGACUCCTT against Pap | inactive: -1.06
GGGAGAAACCAAGGAACUCTT against 2410080P20Rik | inactive: 0.319
GGACAAUGGGCAAGUCACCTT against Rnase1 | inactive: 0.649
CCCUCAUGUUUAGCGAGCATT against Kcnj3 | inactive: 0.481
GGUACAAGCACUCCUGGAATT against Ccs | inactive: -0.508
GGAGCUCCUACCAAGACUUTT against 8230402K04Rik | inactive: -0.0778

Reformatted: entries from further up.
GGACAAUGGGCAAGUCACCTT against Rnase1
  z-score: inactive: 0.649
CCCUCAUGUUUAGCGAGCATT against Kcnj3
  z-score: inactive: 0.481
